Measurements as given in patent US20240376556, “BIOSENSORS FOR DETECTING AND/OR NEUTRALIZING BIOAVAILABLE URANIUM AND RELATED U-SENSITIVE GENETIC MOLECULAR COMPONENTS, GENE CASSETTES, VECTORS, GENETIC CIRCUITS, COMPOSITIONS, METHODS AND SYSTEMS” (LAWRENCE LIVERMORE NATIONAL SECURITY, LLC, published 2024).
For part of these data: At least one result comes from cells or an extract, where the contact may be indirect. For part of these data: Protein sequences can lack the tags named with them.

Tests used:
[1] = tested on: T1, UzcR phosphorylated (UzcR-P) (Caulobacter crescentus NA1000); assay: EMSA; details: purified recombinant protein, protein details: phosphorylated with carbamoyl phosphate, label: 5' 6-FAM
T1 sequence (limits assumed): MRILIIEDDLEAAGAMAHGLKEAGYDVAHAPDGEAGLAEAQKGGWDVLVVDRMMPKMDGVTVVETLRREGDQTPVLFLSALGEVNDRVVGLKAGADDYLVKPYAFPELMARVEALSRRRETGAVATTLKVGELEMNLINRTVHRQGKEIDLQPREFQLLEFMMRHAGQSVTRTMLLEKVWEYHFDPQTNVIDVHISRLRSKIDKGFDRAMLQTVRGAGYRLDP

[2] = tested on: T2, UzcR, native in cells (Caulobacter crescentus NA1000); assay: binding assay; details: ChIP-qRT-PCR in vivo, with or without 40 uM Zn, control region sodA, deltauzcR control; protein in cells; label: 5' 6-FAM
T2 sequence (limits assumed): T1 sequence (limits assumed)

[3] = tested on: UrpR (CCNA_01362, response regulator 1362) (Caulobacter crescentus NA1000); assay: EMSA; details: concentration dependent; 50 nM DNA, 200 mM NaCl, 10 mM MgCl2, 50 ug/ml poly-dI-dC, 37 C; purified recombinant protein; label: 5' fluorescein (6-FAM)
[4] = tested on: T3, UrpR (CCNA_01362), native in cells (Caulobacter crescentus NA1000); assay: activity in cells; details: U-dependent gfp induction; abolished by deletion of CCNA_01362; protein in cells
T3 sequence (limits assumed): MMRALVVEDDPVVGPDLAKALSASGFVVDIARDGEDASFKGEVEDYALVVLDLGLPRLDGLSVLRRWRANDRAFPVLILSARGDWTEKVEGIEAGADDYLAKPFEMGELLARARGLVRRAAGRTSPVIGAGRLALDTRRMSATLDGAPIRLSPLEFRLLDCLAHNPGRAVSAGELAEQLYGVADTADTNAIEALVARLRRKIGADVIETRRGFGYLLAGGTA

[5] = tested on: T2, UzcR, native in cells (Caulobacter crescentus NA1000); assay: activity in cells; details: PurcB activity abolished by uzcR deletion; PurcB-gfp 111.5 fold with 20 uM U; protein in cells

Sequence: CCCTTTGCAAACCATATACTCAAACGACCCAAGCAATATGGTCACAAAAACTTCAAACATTACAGACTGTTTAGAATATTAAAGCCCCGTAATTCTCTTAATTACGCGTCATGACTGAGGTGTAACGAGACTTCGCGAGAACCCGAATGTATCCAATATTCATCGGCGCAGCGAACAGCGCCCAGCCAGAGGGATACTTCA (double strand) [PurcA promoter]
- binding result ([1]; shifted complexes): binds
- binding result [2]: binds

Sequence: CCGGACGGTGACCGGCAAACCACCGCTGTCATGAATGCGTTTTGAAGCTTCGCCATAACGCGCCTTGGGTATCCGGTTCGGAACGCGGCGCTTTCGTTGACCTCTGGCCACGGAGAATTCTCCATCCCAAAGAGGGTGTGGCCCAAAGAGGGTGTGGATTTCTCTTCGCGCCACCCGTTTCGTCAGCCGGACGTCAGGTCCAGACGGCTAAGCTAGCTGCGAGACATGAAAACGAGGGGCTCCGCC (double strand) [Pphyt promoter fragment]
- binding result [3]: binds
- activity on this sequence [4]: active

Sequence: GAAGACCCAAGTTTTGCGGTTAATCATTTACGAAGACTGGGCGGGCAGCAGCCCACTCCCAAGCGCCCACCAATTATGACTTCTTTTTCATAGACTTAATTCGACGTCATGAAGCAGTCGTAACGGGTGTTCGCCATCCGACCGCTCTACATCCTCGATCAACGGATCGCCAAGCGACCACCCAAACCGAGGATCAAGACA (double strand) [PurcB promoter]
- activity on this sequence [5]: active

Sequence: GCGGAGATGGATCGCGCGACGGGTCTGAAACAGAGTCAGTTGAGCCAGGCGTGCGGCGATGACTCCACGTTGTTGCCCCGCGGACTTTCCATTCCGCGCTGCCGTTAAATCCCCGTCATTACCGCAATTTAAGTGGTCTCTGGCCCTCCGTCGGTCCAAACCGTAACTCACACAGTCGCGTATGGACTGAACGGAGTAGTC (double strand) [P1968 promoter]
- binding result ([1]; shifted complex): binds
